Assay results: the supplement of paper PMC6411743
± gives the standard deviation of the averaged measurements. The list shows a part of the results.

Columns and labels:
Experiment in all cases: NP40-soluble protein abundance relative to vehicle (solubility fold change) (ratio); higher = more soluble protein in presence of GTP
[1] = biological target: T1, UniProt O95479 and related entries
T1 sequence (whole entry): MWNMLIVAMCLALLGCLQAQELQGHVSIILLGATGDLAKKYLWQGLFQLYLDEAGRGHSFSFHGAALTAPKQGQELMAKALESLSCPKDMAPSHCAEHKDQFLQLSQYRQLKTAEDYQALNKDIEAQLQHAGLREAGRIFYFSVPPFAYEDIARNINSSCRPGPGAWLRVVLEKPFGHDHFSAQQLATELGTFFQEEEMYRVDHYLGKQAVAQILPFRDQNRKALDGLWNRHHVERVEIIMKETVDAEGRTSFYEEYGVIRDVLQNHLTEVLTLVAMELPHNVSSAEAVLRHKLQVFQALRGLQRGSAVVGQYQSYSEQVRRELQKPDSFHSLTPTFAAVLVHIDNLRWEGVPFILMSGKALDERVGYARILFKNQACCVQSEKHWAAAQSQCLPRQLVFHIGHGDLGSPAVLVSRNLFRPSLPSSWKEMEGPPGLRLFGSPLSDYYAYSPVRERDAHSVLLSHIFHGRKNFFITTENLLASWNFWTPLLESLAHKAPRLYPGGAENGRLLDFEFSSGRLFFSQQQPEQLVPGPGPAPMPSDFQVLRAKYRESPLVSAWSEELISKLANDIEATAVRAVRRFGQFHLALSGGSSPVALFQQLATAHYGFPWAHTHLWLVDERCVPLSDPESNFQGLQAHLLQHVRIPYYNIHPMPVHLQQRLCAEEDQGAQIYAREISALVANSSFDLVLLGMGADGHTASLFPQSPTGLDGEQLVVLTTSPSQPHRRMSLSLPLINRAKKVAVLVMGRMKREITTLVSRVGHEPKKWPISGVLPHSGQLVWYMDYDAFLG
Method in brief: (§1)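 In three independent experiments, Jurkat crude lysate made by Dounce homogenisation was treated for 10 min at room temperature and then 3 min at 37 °C with eight concentrations ranging from 0.1 to 10 mM. It was then solubilised with 0.8% NP40 plus benzonase for 60 min at 4 °C and ultracentrifuged. The supernatant was TMT-labelled for LC-MS/MS, and each value is the fold change against the detergent-processed vehicle for the same replicate, using vsn-normalised intensities.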

[2] = biological target: T2, UniProt O95487 and related entries
T2 sequence (whole entry): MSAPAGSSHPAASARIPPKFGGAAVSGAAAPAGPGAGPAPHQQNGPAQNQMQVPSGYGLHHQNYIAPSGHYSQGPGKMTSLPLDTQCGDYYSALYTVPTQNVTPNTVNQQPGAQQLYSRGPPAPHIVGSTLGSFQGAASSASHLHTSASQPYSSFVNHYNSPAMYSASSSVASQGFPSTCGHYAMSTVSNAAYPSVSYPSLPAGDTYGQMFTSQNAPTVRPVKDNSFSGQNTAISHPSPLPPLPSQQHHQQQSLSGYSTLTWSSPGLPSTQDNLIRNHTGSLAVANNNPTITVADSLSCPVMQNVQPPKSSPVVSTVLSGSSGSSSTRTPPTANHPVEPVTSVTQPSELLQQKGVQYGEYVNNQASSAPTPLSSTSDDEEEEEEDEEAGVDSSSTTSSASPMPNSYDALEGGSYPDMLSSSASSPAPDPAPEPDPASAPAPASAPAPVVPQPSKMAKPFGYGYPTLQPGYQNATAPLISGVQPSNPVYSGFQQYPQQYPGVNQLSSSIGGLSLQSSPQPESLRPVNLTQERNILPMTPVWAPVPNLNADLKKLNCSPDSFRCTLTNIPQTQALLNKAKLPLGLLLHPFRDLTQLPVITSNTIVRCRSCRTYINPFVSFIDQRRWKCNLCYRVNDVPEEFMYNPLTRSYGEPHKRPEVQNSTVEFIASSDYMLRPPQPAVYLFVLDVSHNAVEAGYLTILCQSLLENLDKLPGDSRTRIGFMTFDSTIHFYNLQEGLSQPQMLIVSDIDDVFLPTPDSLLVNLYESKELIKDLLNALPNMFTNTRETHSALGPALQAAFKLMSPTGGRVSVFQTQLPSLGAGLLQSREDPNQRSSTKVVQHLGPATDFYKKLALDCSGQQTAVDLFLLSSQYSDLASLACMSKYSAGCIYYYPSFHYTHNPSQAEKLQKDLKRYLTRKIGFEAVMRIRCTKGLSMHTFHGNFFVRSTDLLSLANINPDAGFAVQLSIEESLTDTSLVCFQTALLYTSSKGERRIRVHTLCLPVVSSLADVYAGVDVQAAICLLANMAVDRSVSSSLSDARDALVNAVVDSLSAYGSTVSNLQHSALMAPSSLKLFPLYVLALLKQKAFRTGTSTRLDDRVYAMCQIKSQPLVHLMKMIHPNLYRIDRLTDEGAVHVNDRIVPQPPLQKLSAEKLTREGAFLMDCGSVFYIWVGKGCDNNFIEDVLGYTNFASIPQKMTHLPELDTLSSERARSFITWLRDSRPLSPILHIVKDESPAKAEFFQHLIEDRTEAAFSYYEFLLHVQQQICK
Method in brief: as §1

UniProt O95777 = biological target: T3, UniProt O95777
T3 sequence (whole entry): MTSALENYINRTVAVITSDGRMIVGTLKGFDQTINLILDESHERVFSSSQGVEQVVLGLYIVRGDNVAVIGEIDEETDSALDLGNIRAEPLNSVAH
Method in brief: as §1

VAMP5 = biological target: T4, VAMP5 (UniProt O95183)
T4 sequence (whole entry): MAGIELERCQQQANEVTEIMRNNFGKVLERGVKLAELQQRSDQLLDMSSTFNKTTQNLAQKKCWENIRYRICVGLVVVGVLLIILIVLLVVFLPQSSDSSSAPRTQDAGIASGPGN
Method in brief: as §1

## Nc1nc2c(ncn2[C@@H]2O[C@H](COP(=O)(O)OP(=O)(O)OP(=O)(O)O)[C@@H](O)[C@H]2O)c(=O)[nH]1 [guanosine triphosphate]
[1]; concentration: 8mM
  NP40-soluble protein abundance: 1.05 ± 0.16
[1]; concentration: 10mM
  NP40-soluble protein abundance: 1.02 ± 0.043
[2]; concentration: 0.1mM
  NP40-soluble protein abundance: 1.03 ± 0.059
[2]; concentration: 0.5mM
  NP40-soluble protein abundance: 1.05 ± 0.056
[2]; concentration: 1mM
  NP40-soluble protein abundance: 1.03 ± 0.036
[2]; concentration: 2mM
  NP40-soluble protein abundance: 1.02 ± 0.053
[2]; concentration: 4mM
  NP40-soluble protein abundance: 1.03 ± 0.038
[2]; concentration: 6mM
  NP40-soluble protein abundance: 1.01 ± 0.055
[2]; concentration: 8mM
  NP40-soluble protein abundance: 1.02 ± 0.03
[2]; concentration: 10mM
  NP40-soluble protein abundance: 1.01 ± 0.034
UniProt O95777; concentration: 0.1mM
  NP40-soluble protein abundance: 0.988 ± 0.029
UniProt O95777; concentration: 0.5mM
  NP40-soluble protein abundance: 0.965 ± 0.053
UniProt O95777; concentration: 1mM
  NP40-soluble protein abundance: 1.03 ± 0.029
UniProt O95777; concentration: 2mM
  NP40-soluble protein abundance: 1.03 ± 0.051
UniProt O95777; concentration: 4mM
  NP40-soluble protein abundance: 1.063 ± 0.0049
UniProt O95777; concentration: 6mM
  NP40-soluble protein abundance: 1.05 ± 0.022
UniProt O95777; concentration: 8mM
  NP40-soluble protein abundance: 0.968 ± 0.046
UniProt O95777; concentration: 10mM
  NP40-soluble protein abundance: 0.981 ± 0.043
VAMP5; concentration: 0.1mM
  NP40-soluble protein abundance: 0.923 ± 0.083
VAMP5; concentration: 0.5mM
  NP40-soluble protein abundance: 0.882 ± 0.078
VAMP5; concentration: 1mM
  NP40-soluble protein abundance: 0.973 ± 0.12
VAMP5; concentration: 2mM
  NP40-soluble protein abundance: 0.967 ± 0.066
VAMP5; concentration: 4mM
  NP40-soluble protein abundance: 0.92 ± 0.037
VAMP5; concentration: 6mM
  NP40-soluble protein abundance: 0.933 ± 0.043
VAMP5; concentration: 8mM
  NP40-soluble protein abundance: 0.896 ± 0.15
VAMP5; concentration: 10mM
  NP40-soluble protein abundance: 0.964 ± 0.06
